Values quoted from earlier work, collected in patent publication US12364699B2, “Method of treating hair loss disorders” (Sun Pharmaceutical Industries, Inc., priority 2023, dated 2025).
Some of these results come from one statement about several compounds together. At least one structure is not confirmed: it was looked up by name or label, or the drawing left a doubt.

System: subjects with AA
Conditions: baricitinib 4 mg up to 52 weeks, ritlecitinib 50 mg up to 48 weeks (FIGS. 13B and 13C); cited from earlier work

| SMILES | proportion of participants achieving SALT ≤20 [%] |
| --- | --- |
| CCS(=O)(=O)N1CC(CC#N)(n2cc(-c3ncnc4[nH]ccc34)cn2)C1 [baricitinib] | ≤ 50 |
| C=CC(=O)N1C[C@H](Nc2ncnc3[nH]ccc23)CC[C@@H]1C [ritlecitinib] | ≤ 50 |
